The source of these data is paper PMC9463143.

These are yes or no findings as the source states them, for the method shown. In cells and extracts the contact can be indirect. These calls come from enrichment with a bait or labelling near it, and not all partners need be listed. Where a sequence is shown, tags or fusion partners need not be part of it.

This assay deals with T1, flag::mCherry::GLH-1 (C. elegans) (UniProt P34689).
T1 sequence: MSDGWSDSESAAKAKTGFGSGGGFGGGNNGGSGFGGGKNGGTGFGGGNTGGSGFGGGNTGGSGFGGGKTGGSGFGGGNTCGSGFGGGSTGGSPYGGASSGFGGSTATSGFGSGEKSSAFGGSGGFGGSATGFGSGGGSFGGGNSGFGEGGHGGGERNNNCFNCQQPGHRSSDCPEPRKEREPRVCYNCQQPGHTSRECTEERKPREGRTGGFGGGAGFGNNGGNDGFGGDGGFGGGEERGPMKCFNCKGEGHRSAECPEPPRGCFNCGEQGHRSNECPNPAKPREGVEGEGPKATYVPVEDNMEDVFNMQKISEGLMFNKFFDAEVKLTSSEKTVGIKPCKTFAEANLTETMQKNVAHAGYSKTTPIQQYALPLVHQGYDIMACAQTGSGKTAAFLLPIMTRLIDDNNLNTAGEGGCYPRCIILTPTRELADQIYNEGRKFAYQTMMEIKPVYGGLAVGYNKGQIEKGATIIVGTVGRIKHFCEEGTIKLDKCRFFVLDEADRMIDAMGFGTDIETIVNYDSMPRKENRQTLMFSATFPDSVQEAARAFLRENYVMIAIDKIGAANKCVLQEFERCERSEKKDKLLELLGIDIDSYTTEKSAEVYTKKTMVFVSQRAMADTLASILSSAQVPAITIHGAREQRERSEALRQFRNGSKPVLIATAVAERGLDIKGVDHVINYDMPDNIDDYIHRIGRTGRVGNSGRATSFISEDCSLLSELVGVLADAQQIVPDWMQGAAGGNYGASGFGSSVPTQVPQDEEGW
Put plainly: affinity purification with mass spectrometry; worms crosslinked with 2 mM DTME for 30 min at room temperature; lysate in 20 mM Tris-HCl pH 7.5, 150 mM NaCl, 2.5 mM MgCl2, 0.5% NP-40; flag::mCherry::GLH-1 captured on anti-Flag magnetic beads 2 h at 4 °C; de-crosslinked with 10 mM DTT; LC-MS/MS; wild type (N2) as control; two biological replicates.

B1: PIWI PRG-1 (protein, UniProt P90786 1-824)
chain: MASGSGRGRGRGSGSNNSGGKDQKYLGTIQPDLFIRQQGQSKTGSSGQPQKCFANFIPIEMTQSDYSIYQYHVEFEPTVDSKANREKMLRDNNVTDEIGHHFVFDGMILYLKEEWEQNQMIEVQHPIDRSLICIRFKQTNRFLVDDPQTINIFNTIIRRSFDALQLTQLGRNYFNWGDSRAVPDYNMSILPGYETAIRMYEENFMLCVENRFKMVREESMYILFHKELRSCQNNPQRVQEKMNEMYGGTTIITRYNNKLHRYTRLDYSISPLSEFVKDGQSITLKEYFKNQYGIEITVDDQPIIISEGKPKQPGEPPQVSYIVPELCFPTGLTDEMRKDFKMMKEIAKHTRMSPQQRLVESRKLIVDLSKNEKVMECFKYWGISLGQDLANVQARVLKSEPLQGKKTYEGKQAEWARGVKECGIYRGSNMTNWIVIGPGSGNSGLLSQKFIEEARRLGKILQVQLGEPMCVPIRGISPNDYLEGVKGAIKQVDGEDIHMLVVMLADDNKTRYDSLKKFLCVECPIPNQCVNLRTLAGKSKDGGENKNLGSIVLKIVLQMICKTGGALWKVNIPLKNTMIVGYDLYHDSTLKGKTVGACVSTTSNDFTQFYSQTRPHENPTQLGNNLTHFVRKALKQYYDSNDQTLPSRLILYRDGAGDGQIPYIKNTEVKLVRDACDAVTDKAAELSNKVQEKIKLAFIIVTKRVNMRILKQGSSLDNAINPQPGTVVDTTVTRPERMDFYLVPQFVNQGTVTPVSYNIIHDDTDLGPDKHQQLAFKLCHLYYNWQGTVRVPAPCQYAHKLAFLTAQSLHDDANGCLRDKLFFL
For B1, the binding result is reported as “binds”.

B2: DEPS-1 (protein, UniProt Q9N303 1-619)
chain: MSERQSKYFDYQGIVISSTGQDNQDSETDLVYLIQAHGKAAPKNIMYGVSKCAFVPTNLERNFDNIEEAKNLERRSKIPLKFGEVILWNESDCDHDKRIILHIKREKPIYEASSSRNGLILKVGGVIQPTSTTSFWTPLCTVTMPETEATRAEPDVWLYAWIRFETTMKSGLDPFNMTATFESFDSCDPSDQARVCEAPWNAGSPDSKFGVWRPDPKPADSDDEIDIEPREGWHLPEDKWAEVIKMQLGLYVGERLLICKELSQFDFIIPLQKPFSRGTDKTLIYPAVGEYFHFSAIWSMQHNGFLIYELQPVPLLRQHVTSVNGNLLTRVVPASIRGLFVDKEGTLGLIDDPHHLLSFFEFHPAGYEFLKAMAEVRAVRTSENKSVRYRIVRTSGMSIFENWLRDTQFVVGPVKGIRINEDTVICAKHPNVYFKIPNNLKEGIPIGGGVQFVGKRQAGVDSEIMITECSPCPAFTCKNYSVSGDTRLFQVYLKPNCDHEQLAESDSMGFVDFRELETPCRGKFLAWVRESITVNDCRRAATIMEVCSTAICPPLIAMSANSSRATSARTTPAGSSIGSRSSIQSRASAATSVSSNRFVGPSSRRTPSGTPQSSTSSRV
As for B2, the binding entry is reported as “binds”.
